Source: publication PMC5915600

Chains of the proteins cited; added tags and fusions are not shown.
UniProt P26358: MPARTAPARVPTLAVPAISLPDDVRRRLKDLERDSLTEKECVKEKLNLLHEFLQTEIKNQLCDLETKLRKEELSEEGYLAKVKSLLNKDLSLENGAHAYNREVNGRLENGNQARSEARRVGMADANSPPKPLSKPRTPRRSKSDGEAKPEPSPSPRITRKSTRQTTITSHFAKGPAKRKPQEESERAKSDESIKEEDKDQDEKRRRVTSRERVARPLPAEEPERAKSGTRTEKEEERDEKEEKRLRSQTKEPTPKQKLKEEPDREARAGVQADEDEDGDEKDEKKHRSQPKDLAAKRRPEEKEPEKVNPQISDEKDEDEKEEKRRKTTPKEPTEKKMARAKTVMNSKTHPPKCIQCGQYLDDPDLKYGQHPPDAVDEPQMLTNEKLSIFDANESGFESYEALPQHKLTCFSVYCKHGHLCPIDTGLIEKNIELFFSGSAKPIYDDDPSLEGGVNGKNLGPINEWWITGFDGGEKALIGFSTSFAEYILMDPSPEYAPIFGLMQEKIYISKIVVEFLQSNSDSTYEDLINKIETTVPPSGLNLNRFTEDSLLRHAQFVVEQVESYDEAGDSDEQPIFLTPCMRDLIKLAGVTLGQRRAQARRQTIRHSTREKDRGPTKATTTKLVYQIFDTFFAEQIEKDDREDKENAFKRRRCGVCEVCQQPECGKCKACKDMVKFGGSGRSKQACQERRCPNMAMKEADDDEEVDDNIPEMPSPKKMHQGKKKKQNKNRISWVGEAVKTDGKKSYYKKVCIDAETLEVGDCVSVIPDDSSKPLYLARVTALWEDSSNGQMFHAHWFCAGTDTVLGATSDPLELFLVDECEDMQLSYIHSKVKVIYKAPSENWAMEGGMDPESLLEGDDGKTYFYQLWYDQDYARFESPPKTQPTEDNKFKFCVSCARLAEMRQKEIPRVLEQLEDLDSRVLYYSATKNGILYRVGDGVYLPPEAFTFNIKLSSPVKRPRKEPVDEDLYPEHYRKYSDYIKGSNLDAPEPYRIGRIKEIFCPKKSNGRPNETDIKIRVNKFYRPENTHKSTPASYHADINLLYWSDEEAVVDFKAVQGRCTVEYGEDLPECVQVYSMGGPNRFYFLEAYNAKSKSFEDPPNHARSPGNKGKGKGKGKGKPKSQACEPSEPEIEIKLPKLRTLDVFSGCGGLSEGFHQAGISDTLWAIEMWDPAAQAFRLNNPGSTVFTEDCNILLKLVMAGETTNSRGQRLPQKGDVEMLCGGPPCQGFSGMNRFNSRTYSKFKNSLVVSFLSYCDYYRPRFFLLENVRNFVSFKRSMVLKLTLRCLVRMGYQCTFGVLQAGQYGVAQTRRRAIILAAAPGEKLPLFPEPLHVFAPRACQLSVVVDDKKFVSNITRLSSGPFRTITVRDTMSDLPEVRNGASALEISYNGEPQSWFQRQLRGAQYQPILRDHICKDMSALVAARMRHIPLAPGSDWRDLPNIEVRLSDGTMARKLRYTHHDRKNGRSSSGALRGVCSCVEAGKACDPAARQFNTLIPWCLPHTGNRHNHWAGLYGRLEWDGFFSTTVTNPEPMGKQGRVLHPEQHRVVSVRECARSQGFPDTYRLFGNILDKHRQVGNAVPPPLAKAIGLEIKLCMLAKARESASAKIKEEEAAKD
UniProt Q13620: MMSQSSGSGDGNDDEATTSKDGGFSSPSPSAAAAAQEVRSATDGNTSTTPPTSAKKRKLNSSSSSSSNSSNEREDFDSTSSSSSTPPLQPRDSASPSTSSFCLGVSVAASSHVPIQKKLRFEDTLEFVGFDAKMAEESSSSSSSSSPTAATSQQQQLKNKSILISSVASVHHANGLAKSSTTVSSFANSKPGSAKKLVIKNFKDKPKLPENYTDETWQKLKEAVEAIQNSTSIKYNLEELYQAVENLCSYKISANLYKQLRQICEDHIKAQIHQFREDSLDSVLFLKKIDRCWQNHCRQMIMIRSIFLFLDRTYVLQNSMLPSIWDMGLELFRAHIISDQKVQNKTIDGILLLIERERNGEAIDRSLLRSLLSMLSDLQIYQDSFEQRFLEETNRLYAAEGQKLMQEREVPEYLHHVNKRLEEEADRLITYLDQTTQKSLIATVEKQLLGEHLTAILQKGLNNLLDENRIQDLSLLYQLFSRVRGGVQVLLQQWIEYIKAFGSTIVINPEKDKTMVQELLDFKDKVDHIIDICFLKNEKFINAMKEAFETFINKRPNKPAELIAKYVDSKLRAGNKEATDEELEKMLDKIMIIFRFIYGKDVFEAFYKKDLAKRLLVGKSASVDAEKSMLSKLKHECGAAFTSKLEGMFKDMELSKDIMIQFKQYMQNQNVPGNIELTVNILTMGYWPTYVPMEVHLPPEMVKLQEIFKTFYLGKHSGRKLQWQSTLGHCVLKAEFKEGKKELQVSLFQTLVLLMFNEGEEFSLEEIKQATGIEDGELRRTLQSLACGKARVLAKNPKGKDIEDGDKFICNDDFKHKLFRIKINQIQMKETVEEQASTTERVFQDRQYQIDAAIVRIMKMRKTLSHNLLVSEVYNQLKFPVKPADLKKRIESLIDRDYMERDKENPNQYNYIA
UniProt Q16531: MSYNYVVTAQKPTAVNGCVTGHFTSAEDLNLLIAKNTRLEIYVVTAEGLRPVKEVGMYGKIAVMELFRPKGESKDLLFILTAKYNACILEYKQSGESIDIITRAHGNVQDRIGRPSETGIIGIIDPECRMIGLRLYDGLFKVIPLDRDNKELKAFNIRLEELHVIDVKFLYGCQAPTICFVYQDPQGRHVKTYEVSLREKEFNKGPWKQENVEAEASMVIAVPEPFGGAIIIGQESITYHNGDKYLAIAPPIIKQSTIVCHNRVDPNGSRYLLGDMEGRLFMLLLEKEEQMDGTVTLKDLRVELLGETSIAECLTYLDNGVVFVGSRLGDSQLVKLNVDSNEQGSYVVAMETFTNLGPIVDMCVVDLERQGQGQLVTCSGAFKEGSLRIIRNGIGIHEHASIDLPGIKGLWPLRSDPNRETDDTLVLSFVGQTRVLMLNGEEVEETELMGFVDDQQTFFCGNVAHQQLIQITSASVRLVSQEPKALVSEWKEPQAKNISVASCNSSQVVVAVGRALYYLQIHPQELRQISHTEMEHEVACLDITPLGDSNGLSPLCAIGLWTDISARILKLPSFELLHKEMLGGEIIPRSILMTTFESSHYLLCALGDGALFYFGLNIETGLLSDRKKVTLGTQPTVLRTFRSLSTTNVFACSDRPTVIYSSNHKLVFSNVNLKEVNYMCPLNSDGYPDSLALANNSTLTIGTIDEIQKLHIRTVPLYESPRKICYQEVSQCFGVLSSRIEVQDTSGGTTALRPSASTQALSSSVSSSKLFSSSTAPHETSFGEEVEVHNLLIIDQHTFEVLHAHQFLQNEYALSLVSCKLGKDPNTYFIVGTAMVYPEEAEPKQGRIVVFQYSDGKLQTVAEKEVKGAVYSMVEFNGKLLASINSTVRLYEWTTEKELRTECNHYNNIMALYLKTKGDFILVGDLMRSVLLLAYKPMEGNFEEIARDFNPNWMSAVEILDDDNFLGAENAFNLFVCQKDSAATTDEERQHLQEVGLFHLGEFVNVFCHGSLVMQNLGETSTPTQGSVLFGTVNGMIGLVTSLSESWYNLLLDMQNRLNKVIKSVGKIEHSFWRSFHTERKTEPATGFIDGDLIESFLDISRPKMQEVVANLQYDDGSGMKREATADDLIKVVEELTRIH

Legend:
[1] = molecular target: Flag-DNMT1 knock-in (endogenous DNMT1 allele C-terminally tagged with the Flag epitope) (human (endogenous in HCT116)) (UniProt P26358); assay: affinity purification with mass spectrometry; Flag-knock-in DNMT1 complexes from HCT116-Flag-DNMT1 lysates on anti-Flag M2 affinity gel, control HCT116 without the tag; gel bands trypsinized, LTQ Orbitrap XL
[2] = molecular target: Flag-DNMT1 knock-in (endogenous DNMT1 allele C-terminally tagged with the Flag epitope) (human (endogenous in HCT116)) (UniProt P26358); assay: as above; remark: listed apart in the source

CUL4B, endogenous (from UniProt Q13620 1-913)
binding [1]: binds

DDB1, endogenous (from UniProt Q16531 1-1140)
binding [1]: binds

B1: L3MBTL3, endogenous (protein, UniProt Q96JM7 1-780)
chain: MTESASSTSGQEFDVFSVMDWKDGVGTLPGSDLKFRVNEFGALEVITDENEMENVKKATATTTWMVPTAQEAPTSPPSSRPVFPPAYWTSPPGCPTVFSEKTGMPFRLKDPVKVEGLQFCENCCQYGNVDECLSGGNYCSQNCARHIKDKDQKEERDVEEDNEEEDPKCSRKKKPKLSLKADTKEDGEERDDEMENKQDVRILRGSQRARRKRRGDSAVLKQGLPPKGKKAWCWASYLEEEKAVAVPAKLFKEHQSFPYNKNGFKVGMKLEGVDPEHQSVYCVLTVAEVCGYRIKLHFDGYSDCYDFWVNADALDIHPVGWCEKTGHKLHPPKGYKEEEFNWQTYLKTCKAQAAPKSLFENQNITVIPSGFRVGMKLEAVDKKNPSFICVATVTDMVDNRFLVHFDNWDESYDYWCEASSPHIHPVGWCKEHRRTLITPPGYPNVKHFSWDKYLEETNSLPAPARAFKVKPPHGFQKKMKLEVVDKRNPMFIRVATVADTDDHRVKVHFDGWNNCYDYWIDADSPDIHPVGWCSKTGHPLQPPLSPLELMEASEHGGCSTPGCKGIGHFKRARHLGPHSAANCPYSEINLNKDRIFPDRLSGEMPPASPSFPRNKRTDANESSSSPEIRDQHADDVKEDFEERTESEMRTSHEARGAREEPTVQQAQRRSAVFLSFKSPIPCLPLRWEQQSKLLPTVAGIPASKVSKWSTDEVSEFIQSLPGCEEHGKVFKDEQIDGEAFLLMTQTDIVKIMSIKLGPALKIFNSILMFKAAEKNSHNEL
binding [2]: binds

Where two headings read alike, the source gives them in different places. Results are given in words; binding and its absence hold for the method and conditions named. In cells and extracts the contact can be indirect. Here binding means that the protein was enriched with, or labelled near, the bait; the list need not be complete.
